In paper PMC10043390, “Novel 2-substituted-5-(4-chloro-2-phenoxy)phenyl-1,3,4-oxadiazole derivatives, ligands of GABAA/benzodiazepine receptor complex: Design, synthesis, radioligand binding assay, and pharmacological evaluation” (EXCLI Journal, 2023):
Where “and” joins values, the source holds several entries; their conditions need not be identical. Equal entries are not always repeated.

Assays:
[1] = biological target: benzodiazepine receptor of rat brains; experiment: Radioligand receptor binding assay ([3H]-flumazenil competitive binding); settings: for Specific binding of [3H]flumazenil: mean ± SEM, n=3
Method: All of the binding assays were performed in triplicates in a total volume of 500 µL at 30 °C for 35 min (Ahmadi et al., 2013[1]).
(§1) Kd and Bmax in radioligand binding assay were calculated by non-linear regression analysis of the saturation and competitive curve data (Program Prism, Graph Pad, San Diego, CA). The IC50s of the novel compounds in binding studies were determined using […]. […] In PTZ and MES tests, the data were presented as a mean with 95% confidence intervals. In the rest of the pharmacological evaluations, one-way ANOVA with Tukey's HSD post-hoc test was used. All the data were presented as mean ± SEM and P<0.05 was considered statistically significant.

male NMRI albino mice [2] = experiment: PTZ-induced lethal convulsion test; type: in vivo; settings: Mus musculus; i.p. 30 min before PTZ 100 mg/kg; mean with 95% confidence intervals
Method: (§2) To assess the anticonvulsant activity of the novel compound 6a, we used PTZ-induced convulsion and MES tests (Guerrini et al., 2008[10]; Lankau et al., 2007[13]). In both models, the ability of the novel compound to protect mice against induced seizures was evaluated. Animals were closely observed for 30 minutes after injection of the lethal dose of PTZ (100 mg/kg) and the number of dead mice after convulsion was reported. In the MES test, each subject was observed closely and the incidence of hind limb tonic extension (HLTE) in the subjects after application of MES (60 Hz, 37.2 mA, and 0.25 s) was reported.
as §1

male NMRI albino mice [3] = experiment: Maximal electroshock (MES) test; type: in vivo; settings: Mus musculus, ip; i.p. 30 min before MES (60 Hz, 37.2 mA, 0.25 s), HLTE; mean with 95% confidence intervals
Method: as §2, §1

male NMRI albino mice [4] = experiment: Pentobarbital-induced sleep test; type: in vivo
Description: The duration of the loss of the righting reflex was considered as the sleeping time. […] For prevention of hypothermia during the experiment, animals were placed on an electric blanket (Khoramjouy et al., 2021[11]).

male NMRI albino mice [5] = tested on: male NMRI albino mice

CN1C(=O)CN=C(c2ccccc2)c2cc(Cl)ccc21 [Diazepam, diazepam, reference compound]
Ki ([1]; [3H]-flumazenil competitive binding): 1.53 nM
Specific binding of [3H]flumazenil ([1]; log[L] -7.0): 0.1733±0.0120 cpm
Specific binding of [3H]flumazenil ([1]; log[L] -8.0): 0.2633±0.0133 cpm
Specific binding of [3H]flumazenil ([1]; log[L] -8.5): 0.3533±0.0033 cpm
Specific binding of [3H]flumazenil ([1]; log[L] -9.0): 0.4467±0.0033 cpm
Specific binding of [3H]flumazenil ([1]; log[L] -9.5): 0.4967±0.0033 cpm
Specific binding of [3H]flumazenil ([1]; log[L] -10.0): 0.5467±0.0234 cpm
Specific binding of [3H]flumazenil ([1]; log[L] -11.0): 0.5833±0.0088 cpm
IC50 ([1]; reduction of specific binding of [3H]-flumazenil by 50 %, triplicates, 30 °C, 35 min): 2.5 ± 0.07 nM
ED50 (male NMRI albino mice [2]): 0.74 mg/kg
ED50 (male NMRI albino mice [3]): 0.74 mg/kg
Sleeping time (male NMRI albino mice [4]; 2 mg/kg i.p., pentobarbital 40 mg/kg i.p., raw data of single animals): 45 min and 40 min and 41 min and 54 min and 59 min and 46 min and 58 min and 48 min
effect on sleeping time (male NMRI albino mice [4]; 2 mg/kg, P<0.001): increased the sleeping time
latency of entrance to the dark compartment (male NMRI albino mice [5]; 1 mg/kg i.p., testing day, raw data of single animals): 262 s and 260 s and 299 s and 240 s and 320 s and 200 s and 206 s and 333 s
effect on latency to enter the dark compartment (male NMRI albino mice [5]; 1 mg/kg, compared to vehicle, P<0.001): significantly decreased the latency
